Data: PubChem BioAssay AID256 (DTP/NCI, 2004)
The list is a part of this screen's results and no random one: it is rich in T/C values a quarter to a half above the control, in often repeated tests (any T/C) and in doses without a T/C. Other doses and runs of a compound stand elsewhere. T/C: endpoint of the treated group in % of that of the vehicle group. Some doses have a count of surviving animals in place of a T/C: the source files T/C as zero there, which appears to mark a toxic dose or a test without result, not a measured value. Some survivor counts are full or nearly so, which does not show that the dose was tolerated: survival well below the control is almost never listed, so the zero probably covers shortened survival too. Survivors were counted at the toxicity check, usually on the fifth day, unless a day is given; later deaths do not show. Schedules are NCI's codes, read here as Q, the interval in days (D) or hours (H), X, the number of doses. Where survival is the endpoint, the PubChem record calls one and a half times the control and up active, and a quarter to a half above the control has no call in these data; cut-offs in other NCI protocols can differ. Some doses were run more than once; the results are listed from low to high.

Tested on: CD2F1 mice, L1210 leukemia ip, survival T/C
Assay: NCI In Vivo Anticancer Drug Screen. Data for tumor model L1210 Leukemia (intraperitoneal) in CD2F1 (CDF1) mice
Conditions: T/C endpoint: mean survival time, higher T/C = longer survival
How it was run: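 Mice carrying a transplanted tumor received test compound or vehicle alone. The value is the measurement in the treated group divided by that in the vehicle-treated control group.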

[1] = dose: 200.0 mg/kg/injection, schedule: Q01DX009 (ip), vehicle: saline with Tween-80
[2] = dose: 400.0 mg/kg/injection, schedule: Q01DX009 (ip), vehicle: saline with Tween-80
[3] = dose: 200.0 mg/kg/injection, schedule: Q04DX003 (ip), vehicle: saline with Tween-80
[4] = dose: 400.0 mg/kg/injection, schedule: Q04DX003 (ip), vehicle: saline with Tween-80
[5] = dose: 100.0 mg/kg/injection, schedule: Q04DX002 (ip), vehicle: saline with Tween-80
[6] = dose: 200.0 mg/kg/injection, schedule: Q04DX002 (ip), vehicle: saline with Tween-80
[7] = dose: 400.0 mg/kg/injection, schedule: Q04DX002 (ip), vehicle: saline with Tween-80
[8] = dose: 150.0 mg/kg/injection, schedule: Q01DX001 (ip), vehicle: saline
[9] = dose: 300.0 mg/kg/injection, schedule: Q01DX001 (ip), vehicle: saline

## CN(C)c1ccc(/C=C/C(=O)Cc2ccccc2)cc1
dose: 200.0 mg/kg/injection, schedule: Q01DX001 (ip), vehicle: saline sonified
  survivor count: 6 of 6
dose: 400.0 mg/kg/injection, schedule: Q01DX001 (ip), vehicle: saline sonified
  survivor count: 6 of 6

## CN(Cc1ccc(C(=O)NC(CCC(=O)O)C(=O)O)cc1)Cc1cnc2nc(N)nc(N)c2n1 (stereo not drawn)
dose: 25.0 mg/kg/injection, schedule: Q01DX009 (ip), vehicle: water
  T/C: 127 % of control
dose: 33.0 mg/kg/injection, schedule: Q01DX009 (ip), vehicle: water
  T/C: 125 % of control
dose: 50.0 mg/kg/injection, schedule: Q01DX009 (ip), vehicle: water
  T/C: 125 and 136 % of control
dose: 75.0 mg/kg/injection, schedule: Q01DX009 (ip), vehicle: water
  T/C: 130 % of control
dose: 112.0 mg/kg/injection, schedule: Q01DX009 (ip), vehicle: water
  T/C: 127 % of control

## CNC(=O)OC[C@H]1C2=C(C(=O)C(C)=C(N)C2=O)N2C[C@H]3N[C@H]3[C@@]12OC
dose: 27.5 mg/kg/injection, schedule: Q01DX001 (ip), vehicle: carboxymethylcellulose (CMC)
  T/C: 148 % of control

## C=C(Cl)CN(CC)CCO
[1]
  survivor count: 5 of 6
[2]
  survivor count: 0 of 6

## CN(Cc1cnc2nc(N)nc(N)c2n1)c1ccc(C(=O)NC(CCC(=O)NC(CCC(=O)O)C(=O)O)C(=O)O)cc1 (stereo not drawn)
dose: 1.25 mg/kg/injection, schedule: Q01DX009 (ip), vehicle: sodium bicarbonate
  T/C: 148 % of control
dose: 20.0 mg/kg/injection, schedule: Q01DX009 (ip), vehicle: sodium bicarbonate
  survivor count: 5 of 6
dose: 40.0 mg/kg/injection, schedule: Q01DX009 (ip), vehicle: sodium bicarbonate
  survivor count: 3 of 6

## COC[C@H]1OC(=O)c2coc3c2[C@@]1(C)C1=C(C3=O)[C@@H]2CCC(=O)[C@@]2(C)C[C@H]1OC(C)=O
dose: 2.5 mg/kg/injection, schedule: Q01DX009 (ip), vehicle: saline with Tween-80
  survivor count: 2 of 6
dose: 5.0 mg/kg/injection, schedule: Q01DX009 (ip), vehicle: saline with Tween-80
  survivor count: 2 of 6
dose: 10.0 mg/kg/injection, schedule: Q01DX009 (ip), vehicle: saline with Tween-80
  survivor count: 0 of 6

## Nc1cccc(CCCCc2ccc(Cl)c(S(=O)(=O)F)c2)c1
[2]
  survivor count: 3 of 6

## CCCCOC(=O)c1ccccc1
[2]
  survivor count: 6 of 6

## Cc1c(C)c(O)c(Br)c(C)c1O (tested in a mixture with another compound)
dose: 100.0 mg/kg/injection, schedule: Q04DX003 (ip), vehicle: other
  survivor count: 2 of 6

## O=C(CCl)N1CCC2(CC1)SSC1(CCN(C(=O)CCl)CC1)S2
dose: 100.0 mg/kg/injection, schedule: Q04DX003 (ip), vehicle: saline with Tween-80
  survivor count: 5 of 6
[3]
  survivor count: 0 of 6
[4]
  survivor count: 0 of 6

## OC1CC2CC1C1C=CCC21 (stereo not drawn)
[4]
  survivor count: 2 of 6

## [Cl][Hg][c]1ccco1
dose: 10.0 mg/kg/injection, schedule: Q01DX001 (ip), vehicle: Klucel (hydroxypropylcellulose) (HPC)
  survivor count: 1 of 6
dose: 20.0 mg/kg/injection, schedule: Q01DX001 (ip), vehicle: Klucel (hydroxypropylcellulose) (HPC)
  survivor count: 0 of 6
dose: 40.0 mg/kg/injection, schedule: Q01DX001 (ip), vehicle: Klucel (hydroxypropylcellulose) (HPC)
  survivor count: 0 of 6

## CC(=O)OC1(c2ccccc2)CC(=O)C=C1c1ccccc1 (stereo not drawn)
[5]
  survivor count: 0 of 3
[6]
  survivor count: 0 of 3
[7]
  survivor count: 0 of 3

## CC(C)OC(=O)c1cc([N+](=O)[O-])cc([N+](=O)[O-])c1Sc1ncnc2nc[nH]c12
dose: 5.0 mg/kg/injection, schedule: Q01DX005 (ip), vehicle: other
  T/C: 133 % of control
dose: 9.4 mg/kg/injection, schedule: Q01DX005 (ip), vehicle: other
  T/C: 138 % of control
dose: 10.0 mg/kg/injection, schedule: Q01DX005 (ip), vehicle: other
  T/C: 125 % of control
dose: 37.5 mg/kg/injection, schedule: Q01DX005 (ip), vehicle: other
  survivor count: 2 of 3
dose: 75.0 mg/kg/injection, schedule: Q01DX005 (ip), vehicle: other
  survivor count: 1 of 3
dose: 150.0 mg/kg/injection, schedule: Q01DX005 (ip), vehicle: other
  survivor count: 0 of 3

## Cc1nc(-c2ccccc2)[nH]c(=O)c1CC(C)O (stereo not drawn)
[2]
  survivor count: 3 of 6

## N#CC1C2C=CC(C2)C1C#N (stereo not drawn)
dose: 75.0 mg/kg/injection, schedule: Q01DX001 (ip), vehicle: saline
  survivor count: 0 of 6
[8]
  survivor count: 0 of 6
[9]
  survivor count: 0 of 6

## COc1cc(C(=O)NC(=S)Nc2ccc3ccccc3c2)cc(OC)c1OC
[2]
  survivor count: 3 of 3

## CCOC(=O)C[n+]1ccccc1/C=C/c1ccc(O)cc1
dose: 75.0 mg/kg/injection, schedule: Q01DX001 (ip), vehicle: other
  survivor count: 0 of 6
dose: 150.0 mg/kg/injection, schedule: Q01DX001 (ip), vehicle: other
  survivor count: 0 of 6
dose: 300.0 mg/kg/injection, schedule: Q01DX001 (ip), vehicle: other
  survivor count: 0 of 6

## CN(C)c1ccc(/C=C/c2cc[n+](C)cc2)cc1
dose: 16.0 mg/kg/injection, schedule: Q01DX009 (ip), vehicle: saline
  survivor count: 3 of 6

## O=CO.[Cu+2]
dose: 20.0 mg/kg/injection, schedule: Q01DX001 (ip), vehicle: saline
  survivor count: 0 of 6
dose: 40.0 mg/kg/injection, schedule: Q01DX001 (ip), vehicle: saline
  survivor count: 0 of 6
dose: 80.0 mg/kg/injection, schedule: Q01DX001 (ip), vehicle: saline
  survivor count: 0 of 6

## CN(N)c1cccc2c1CCCC2
[3]
  survivor count: 0 of 6
[4]
  survivor count: 0 of 6

## COC(=O)c1n[nH]c(C(C)C)c1N=NN(C)C
dose: 300.0 mg/kg/injection, schedule: Q01DX009 (ip), vehicle: saline with Tween-80
  survivor count: 0 of 6

## Cn1c(=O)c2c(nc(Cl)n2Cc2ccccc2)n(C)c1=O
dose: 200.0 mg/kg/injection, schedule: Q01DX005 (ip), vehicle: saline with Tween-80
  survivor count: 0 of 6

## CCCNC1=C(C)C(=O)C2=C(C1=O)[C@@H](COC(N)=O)[C@]1(O)[C@H]3[C@@H](CN21)N3C (stereo partly drawn)
dose: 200.0 mg/kg/injection, schedule: Q01DX001 (ip), vehicle: distilled water + Tween-80
  T/C: 140 % of control

## Cc1nc2c(=O)n(C3OC(CO)C(O)C3O)cnc2o1 (stereo not drawn)
dose: 200.0 mg/kg/injection, schedule: Q01DX005 (ip), vehicle: saline
  T/C: 132 % of control

## CC12c3ccccc3C(c3ccccc31)C1C(=O)OC(=O)C12 (stereo not drawn)
[1]
  survivor count: 3 of 6

## O=C(O)c1cccc(F)c1Cl
[7]
  survivor count: 2 of 3

## NCCCc1ccccc1
dose: 400.0 mg/kg/injection, schedule: Q01DX009 (ip), vehicle: saline
  survivor count: 0 of 6

## CN(C)C(=O)OCC[N+](C)(C)CCCCCCCCCC[N+](C)(C)CCOC(=O)N(C)C
dose: 5.0 mg/kg/injection, schedule: Q04DX003 (ip), vehicle: saline
  survivor count: 4 of 6

## CN1C(=O)CC(c2ccc(NC(=O)CI)cc2)C1=O (stereo not drawn)
dose: 25.0 mg/kg/injection, schedule: Q04DX002 (ip), vehicle: saline with Tween-80
  survivor count: 2 of 3

## NC(=O)c1c[n+](Cc2ccccc2)ccn1
[8]
  survivor count: 2 of 6
[9]
  survivor count: 0 of 6

## Cc1cn(C2CC(O)C(COC(c3ccccc3)(c3ccccc3)c3ccc(OCC(=O)O)cc3)O2)c(=O)[nH]c1=O (stereo not drawn)
dose: 400.0 mg/kg/injection, schedule: Q01DX005 (ip), vehicle: distilled water + Tween-80
  survivor count: 0 of 6

## O=c1cc(-c2ccccc2)nc(N[N+](=O)[O-])[nH]1
[4]
  survivor count: 3 of 6

## O=P(O)(O)OCC1OC(n2cnc3c(NCc4ccco4)ncnc32)C(O)C1O (stereo not drawn)
dose: 200.0 mg/kg/injection, schedule: Q01DX005 (ip), vehicle: water
  survivor count: 5 of 6

## CN(C)S(=O)(=O)C(C)(C)c1ccccc1
[2]
  survivor count: 2 of 6

## C(#CCNC1CCCCC1)CNC1CCCCC1
[5]
  survivor count: 0 of 3
[6]
  survivor count: 0 of 3
[7]
  survivor count: 0 of 3

## CC1=NCCc2ccccc21
dose: 50.0 mg/kg/injection, schedule: Q04DX003 (ip), vehicle: saline
  survivor count: 0 of 6
